± gives the standard deviation of the averaged measurements. Over roughly 1,600 compounds, “normalized growth (OD600, IQM-normalized) in LPM” has its median near 1; the lowest 2% begin near 0.014. Some of the results follow.
Each molecule was assayed on Salmonella enterica serovar Typhimurium SL1344 (assay: normalized growth (OD600, IQM-normalized) in LPM (fraction of plate interquartile mean); higher = more bacterial growth (less inhibition)). Details: LPM pH 5.8; 10 µM; 16 h.

Row | SMILES | normalized growth
1 | OC[C@H]1O[C@H]([S-])[C@H](O)[C@@H](O)[C@@H]1O.[Au+] | 0.774 ± 0.031
2 | O=C(NCc1ccccc1)OCCO | 0.961 ± 0.11
3 | CC(=O)c1ccc(S(=O)(=O)NC(=O)NC2CCCCC2)cc1 | 0.812 ± 0.017
4 | CCCNC(C)C(=O)Nc1ccccc1C (centres undefined) | 0.972 ± 0.027
5 | COc1ccc(CN(CCN(C)C)c2ccccn2)cc1 | 1.07 ± 0.022
6 | Nc1ncn([C@@H]2O[C@H](CO)[C@@H](O)[C@H]2O)c(=O)n1 | 0.0134 ± 0.00024
7 | CC(COc1ccccc1)N(CCCl)Cc1ccccc1 (centres undefined) | 0.952 ± 0.028
8 | Cc1scc2c1N(C(=O)CN1CCN(C)CC1)c1ccccc1NC2=O | 0.966 ± 0.057
9 | C=C1c2cccc(O)c2C(=O)C2=C(O)[C@]3(O)C(=O)C(C(N)=O)=C(O)[C@@H](N(C)C)[C@@H]3[C@@H](O)[C@H]12 | 0.0154 ± 0.00028
10 | c1ccc(C2CN3CCSC3=N2)cc1 (centres undefined) | 1.08 ± 0.021
11 | C[C@]12CCC(=O)C=C1CC[C@@H]1[C@@H]2[C@@H](O)C[C@@]2(C)[C@H]1CC[C@]2(O)C(=O)COC(=O)CCC(=O)O | 0.929 ± 0.04
12 | CC(C)(C)NC[C@H](O)COc1nsnc1N1CCOCC1 | 1.2 ± 0.005
13 | NCCCC[C@H](N[C@@H](CCc1ccccc1)C(=O)O)C(=O)N1CCC[C@H]1C(=O)O | 0.96 ± 0.048
14 | CO/N=C(\C(=O)N[C@@H]1C(=O)N2C(C(=O)O)=C(CSc3nc(=O)c(O)nn3C)CS[C@H]12)c1csc(N)n1 | 0.0987 ± 0.025
15 | CCOC(=O)OC(C)OC(=O)[C@@H]1N2C(=O)[C@@H](NC(=O)[C@H](N)c3ccccc3)[C@H]2SC1(C)C (some centres undefined) | 1.02 ± 0.022
16 | COC1=C(OC)C(=O)C(CCCCCCCCCCO)=C(C)C1=O | 0.998 ± 0.021
17 | CCOC(=O)[C@H](CCc1ccccc1)N[C@H]1CCc2ccccc2N(CC(=O)O)C1=O | 0.827 ± 0.067
18 | CC(=O)N[C@@H](CC(C)C)C(=O)O | 1.1 ± 0.047
19 | Nc1nc(=O)c2nc(CNc3ccc(C(=O)N[C@@H](CCC(=O)O)C(=O)O)cc3)cnc2[nH]1 | 0.903 ± 0.031
20 | O=C([O-])[C@H]1/C(=C/CO)O[C@@H]2CC(=O)N21.[Li+] | 1.12 ± 0.076
21 | CC[C@H]1OC(=O)[C@H](C)[C@@H](O[C@H]2C[C@@](C)(OC)[C@@H](O)[C@H](C)O2)[C@H](C)[C@@H](O[C@@H]2O[C@H](C)C[C@H](N(C)C)[C@H]2O)[C@](C)(O)C[C@@H](C)/C(=N\OCOCCOC)[C@H](C)[C@@H](O)[C@]1(C)O | 0.852 ± 0.039
22 | CC(C)NCC(O)COc1ccc(COCCOC(C)C)cc1 (centres undefined) | 1.06 ± 0.009
23 | O=C1CN2Cc3c(ccc(Cl)c3Cl)N=C2N1 | 1.05 ± 0.055
24 | Nc1nc(Cl)nc2c1ncn2[C@@H]1O[C@H](CO)[C@@H](O)[C@@H]1F | 1.11 ± 0.025
25 | CC(=O)OCC(COC(C)=O)OC(C)=O | 1.05 ± 0.062

Row | SMILES | normalized growth
26 | NC(=O)N1c2ccccc2C=Cc2ccccc21 | 1.06 ± 0.059
27 | NCCC[C@H](N)C(=O)O | 0.945 ± 0.082
28 | CN(C)CCN(Cc1cccs1)c1ccccn1 | 1.03 ± 0.053
29 | CC(=O)N[C@@H](CC(=O)N[C@@H](CCC(=O)O)C(=O)O)C(=O)O | 0.968 ± 0.075
30 | Cc1ccc(S(=O)(=O)NC(=O)NN2CC3CCCC3C2)cc1 (centres undefined) | 1.02 ± 0.044
31 | CCn1cc(C(=O)O)c(=O)c2cnc(N3CCNCC3)nc21 | 1.02 ± 0.013
32 | NCCS(=O)(=O)O | 1.1 ± 0.053
33 | COc1cc2nc(N3CCN(C(=O)c4ccco4)CC3)nc(N)c2cc1OC | 1.15 ± 0.043
34 | Oc1c(I)cc(I)c2cccnc12 | 0.58 ± 0.02
35 | O=C(CCCN1CC=C(n2c(=O)[nH]c3ccccc32)CC1)c1ccc(F)cc1 | 1.1 ± 0.052
36 | CCN(CC)CCNC(=O)c1cc(S(C)(=O)=O)ccc1OC | 1.02 ± 0.054
37 | CCn1cc(C(=O)O)c(=O)c2ccc(C)nc21 | 0.071 ± 0.011
38 | C[C@H]1[C@@H](O)O[C@@H]2O[C@@]3(C)CC[C@H]4[C@H](C)CC[C@@H]1[C@@]24OO3 | 1.13 ± 0.061
39 | CCCCCC(C)N (centres undefined) | 1.08 ± 0.11
40 | O=C(O)CCC(=O)OC[C@@H](NC(=O)C(Cl)Cl)[C@H](O)c1ccc([N+](=O)[O-])cc1 | 0.014 ± 0.00072
41 | COc1ccc2cc(CCC(C)=O)ccc2c1 | 1.03 ± 0.032
42 | C#CCN(C)Cc1ccccc1 | 1.06 ± 0.048
43 | OC(CCN1CCCCC1)(c1ccccc1)C1CC2C=CC1C2 (centres undefined) | 1.04 ± 0.022
44 | CCN(CC)CC#CCOC(=O)C(O)(c1ccccc1)C1CCCCC1 (centres undefined) | 0.955 ± 0.025
45 | CCN(Cc1ccncc1)C(=O)C(CO)c1ccccc1 (centres undefined) | 1.06 ± 0.13
46 | CC(C)N1CCN(c2ccc(OCC3COC(Cn4cncn4)(c4ccc(Cl)cc4Cl)O3)cc2)CC1 (centres undefined) | 0.978 ± 0.059
47 | CN1C2CCCC1CC(NC(=O)c1nn(C)c3ccccc13)C2 (centres undefined) | 1.06 ± 0.013
48 | O=C([O-])c1ccccc1O.[Na+] | 0.705 ± 0.029
49 | NC[C@H]1O[C@H](O[C@H]2[C@H](O[C@@H]3O[C@H](CO)[C@@H](O)[C@H]3O)[C@@H](O)[C@H](N)C[C@@H]2N)[C@H](N)[C@@H](O)[C@@H]1O | 1.01 ± 0.072
50 | C=CC[C@@H]1/C=C(\C)C[C@H](C)C[C@H](OC)[C@H]2O[C@@](O)(C(=O)C(=O)N3CCCC[C@H]3C(=O)O[C@H](/C(C)=C/[C@@H]3CC[C@@H](O)[C@H](OC)C3)[C@H](C)[C@@H](O)CC1=O)[C@H](C)C[C@@H]2OC | 0.857 ± 0.044

Row | SMILES | normalized growth
51 | CN1CCCC(n2nc(Cc3ccc(Cl)cc3)c3ccccc3c2=O)CC1 (centres undefined) | 1.04 ± 0.039
52 | O=C(CNC(=O)c1ccc(Cl)cc1)NO | 1.06 ± 0.053
53 | CN(C)CCC[C@@]1(c2ccc(F)cc2)OCc2cc(C#N)ccc21 | 1.08 ± 0.041
54 | CC1=CC(=O)NS(=O)(=O)O1 | 0.928 ± 0.054
55 | NC(=O)N/N=C/c1ccc([N+](=O)[O-])o1 | 1.13 ± 0.04
56 | O=C(O[C@H]1CN2CCC1CC2)N1CCc2ccccc2[C@@H]1c1ccccc1 | 0.985 ± 0.021
57 | CN1CCCCC1CCN1c2ccccc2Sc2ccc([S+](C)[O-])cc21 (centres undefined) | 0.963 ± 0.027
58 | CO[C@@H]1[C@@H](OC(N)=O)[C@@H](O)[C@H](Oc2ccc3c(O)c(NC(=O)c4ccc(O)c(CC=C(C)C)c4)c(=O)oc3c2C)OC1(C)C | 0.0394 ± 0.026
59 | CCN1CCN(C(=O)N[C@@H](C(=O)N[C@@H]2C(=O)N3[C@@H]2SC(C)(C)[C@@H]3C(=O)O)c2ccccc2)C(=O)C1=O | 1.013 ± 0.0089
60 | CC(=O)Oc1cccc(O)c1 | 1.07 ± 0.025
61 | CN(C)CCc1c[nH]c2ccc(Cn3cncn3)cc12 | 0.964 ± 0.026
62 | OCCN1CCN(CCCN2c3ccccc3Sc3ccc(Cl)cc32)CC1 | 0.977 ± 0.032
63 | Nc1ccc(S(=O)(=O)c2ccc(N)cc2)cc1 | 0.965 ± 0.043
64 | COc1ccc(NS(=O)(=O)c2ccc(N)cc2)nn1 | 1.19 ± 0.035
65 | Nc1ccc(C(=O)NCC(=O)O)cc1 | 1.05 ± 0.026
66 | CCC[C@H](N[C@@H](C)C(=O)N1[C@H](C(=O)O)C[C@@H]2CCCC[C@@H]21)C(=O)OCC | 1.02 ± 0.022
67 | Cn1nnnc1SCC1=C(C(=O)O)N2C(=O)[C@@H](NC(=O)[C@H](O)c3ccccc3)[C@H]2SC1 | 0.952 ± 0.093
68 | N=C(N)NCC1COC2(CCCCC2)O1 (centres undefined) | 0.863 ± 0.015
69 | CC1(C)OC(=O)NC1=O | 0.957 ± 0.043
70 | Cc1ncc(CSSCc2cnc(C)c(O)c2CO)c(CO)c1O | 1.08 ± 0.061
71 | CC(=O)Oc1cccc2c1C(=O)c1c(OC(C)=O)cc(C(=O)O)cc1C2=O | 0.798 ± 0.022
72 | N=C(N)NC(=N)N1CCOCC1 | 1.09 ± 0.092
73 | C=C1C[C@H]2[C@@H]3C=C(C)C4=CC(=O)CC[C@]4(C)[C@H]3CC[C@]2(C)[C@@]1(OC(C)=O)C(C)=O | 1.02 ± 0.015
74 | N[C@H]1C(O)O[C@H](CO)[C@@H](O)[C@@H]1O (some centres undefined) | 0.974 ± 0.045
75 | Nc1ccc(C(=O)Oc2ccccc2)c(O)c1 | 1.07 ± 0.026

Row | SMILES | normalized growth
76 | CNNCc1ccc(C(=O)NC(C)C)cc1 | 1.05 ± 0.025
77 | O=c1[nH]c(=O)n([C@H]2C[C@H](O)[C@@H](CO)O2)cc1F | 0.0114 ± 0.00023
78 | CN(C)CCC=C1c2ccccc2C=Cc2ccccc21 | 0.996 ± 0.028
79 | CN(C)CCc1c[nH]c2ccc(C[C@H]3COC(=O)N3)cc12 | 1 ± 0.036
80 | NS(=O)(=O)c1cc2c(cc1Cl)NCNS2(=O)=O | 1 ± 0.035
81 | Nc1ncnc2c1ncn2[C@@H]1O[C@H](COP(=O)(O)O)[C@@H](O)[C@H]1O | 1.05 ± 0.027
82 | CCC(=O)O[C@H]1[C@H](O[C@@H]2[C@@H](C)[C@H](O[C@H]3C[C@@](C)(OC)[C@@H](O)[C@H](C)O3)[C@@H](C)C(=O)O[C@H](CC)[C@@](C)(O)[C@H](O)[C@@H](C)C(=O)[C@H](C)C[C@@]2(C)O)O[C@H](C)C[C@@H]1N(C)C | 0.819 ± 0.087
83 | CC(c1cc2ccccc2s1)N(O)C(N)=O (centres undefined) | 1 ± 0.034
84 | CC(=O)Oc1cc(C(C)C)c(OCCN(C)C)cc1C | 0.91 ± 0.02
85 | O=C(O)c1cc(O)c2c(c1)[C@H]([C@H]1c3cc(C(=O)O)cc(O)c3C(=O)c3c(O[C@@H]4O[C@H](CO)[C@@H](O)[C@H](O)[C@H]4O)cccc31)c1cccc(O[C@@H]3O[C@H](CO)[C@@H](O)[C@H](O)[C@H]3O)c1C2=O | 1.06 ± 0.032
86 | CN(C)CCCOc1nn(Cc2ccccc2)c2ccccc12 | 0.976 ± 0.065
87 | CC(=O)OCC(=O)[C@@]1(O)CC[C@H]2[C@@H]3CCC4=CC(=O)CC[C@]4(C)[C@H]3C(=O)C[C@@]21C | 0.985 ± 0.068
88 | COc1cc(C(=O)N2CCOCC2)cc(OC)c1OC | 0.985 ± 0.098
89 | CC(=O)OCC(=O)[C@@]1(O)CC[C@H]2[C@@H]3CCC4=CC(=O)C=C[C@]4(C)[C@@]3(F)[C@@H](O)C[C@@]21C | 0.823 ± 0.054
90 | CCCCC(=O)O[C@]1(C(=O)CO)[C@@H](C)C[C@H]2[C@@H]3CCC4=CC(=O)C=C[C@]4(C)[C@@]3(F)[C@@H](O)C[C@@]21C | 1.51 ± 0.2
91 | S=C=Nc1ccc(N=C=S)cc1 | 1.07 ± 0.049
92 | OC[C@@H](O)[C@@H](O)[C@H](O)[C@@H](O)CO | 0.929 ± 0.028
93 | C#C[C@]1(O)CC[C@H]2[C@@H]3[C@H](C)CC4=C(CCC(=O)C4)[C@H]3CC[C@@]21C | 0.987 ± 0.048
94 | CC1CCC(NC(=O)N(CCCl)N=O)CC1 (centres undefined) | 1.11 ± 0.02
95 | Oc1ccc(O)cc1 | 0.997 ± 0.056
96 | COc1cc2nc(N3CCN(C(=O)C4CCCO4)CC3)nc(N)c2cc1OC (centres undefined) | 0.998 ± 0.019
97 | Nc1ccc(S(=O)(=O)Nc2ccc(Cl)nn2)cc1 | 1.09 ± 0.09
98 | Cc1cc2nc3ccc(N(C)C)cc3[s+]c2cc1N | 0.665 ± 0.022
99 | CC(C)(O/N=C(\C(=O)N[C@@H]1C(=O)N2C(C(=O)[O-])=C(C[n+]3ccccc3)CS[C@H]12)c1csc(N)n1)C(=O)O | 0.0782 ± 0.0096

From the supplement of paper PMC6331611
